# The campaign covered roughly 300,000 compounds. About 5,400 (1.8%) were called active. The shares of active, inactive and inconclusive entries below differ from those in the screen. The call rests on the fitted dose curve; tested in HEK293 cells. Potencies beside an inconclusive call are fits to weak or partial responses and may not hold up.
# Experiment: qHTS for inhibitors of binding or entry into cells for Marburg Virus
# Details: Marburg virus pseudotyped entry inhibition, cell reporter; series mostly up to 37.8 µM
# Potency means the concentration at half of the fitted maximal effect.
row,SMILES,Potency
1,Cn1ccc(NC(=O)CCl)n1,"inconclusive: 7.08 µM [inhibitor, partial curve, poor fit]"
2,CCOC(=O)c1oc2cc(O)cc(C)c2c1C,"inconclusive: 20 µM [activator, partial curve, poor fit]"
3,CC(NCc1ccc(Cl)cc1)C(O)c1ccccc1 (configuration not stated),"inconclusive: 23.1 µM [inhibitor, single point]"
4,Oc1c(Br)cc(Br)c(/C=N/n2c(-c3ccccc3)n[nH]c2=S)c1Br,"inconclusive: 4.47 µM [inhibitor, single point]"
5,CC(Sc1nnnn1-c1ccccc1)C(=O)Nc1ccccc1-c1ccccc1 (configuration not stated),"inconclusive: 7.94 µM [inhibitor, partial curve, poor fit]"
6,CC1CCN(C(=O)CN2C(=O)NC3(CCCCCC3)C2=O)CC1,"inconclusive: 0.398 µM [inhibitor, single point]"
7,CCN(C(=O)CSc1nncn1-c1ccccc1)C1CCS(=O)(=O)C1 (configuration not stated),inactive
8,CCOC(=O)c1oc2cccc(OC(C)=O)c2c1C,inactive
9,CCOc1ccccc1Nc1nc2ccccc2nc1NS(=O)(=O)c1ccc(Cl)cc1,inactive
10,Cc1cc(C)n2nc(C(=O)Nc3ccc4c(c3)OCO4)cc2n1,inactive
11,COc1ccc(C(=O)n2nc(-c3cccnc3)nc2NCc2ccccc2)cc1OC,inactive
12,Cc1cccc(NC(=O)Cc2nc(-c3c[nH]c(C(=O)N4CCCC4)c3)cs2)c1,"inconclusive: 8.91 µM [inhibitor, partial curve, poor fit]"
13,Cc1cccc(NC(=O)COc2ccc(Br)cc2/C=N/O)c1,"inconclusive: 15.8 µM [inhibitor, single point]"
14,Cc1ccc(CN2CCN(Cc3cccc(-n4cccn4)c3)CC2CCO)cc1 (configuration not stated),"inconclusive: 15.8 µM [inhibitor, single point]"
15,N/C(=N\OC(=O)Cc1cccs1)c1ccc([N+](=O)[O-])cc1,inactive
16,O=C(Nc1ccccn1)c1sc2cccc(F)c2c1Cl,"inconclusive: 2.24 µM [inhibitor, partial curve, poor fit]"
17,O=C(COC(=O)COc1ccc(Cl)cc1)NC1CCCCCC1,inactive
18,CC1CCCC(C)N1C(=O)COC(=O)c1cc(-c2cccs2)nn1-c1ccccc1 (configuration not stated),"inconclusive: 4.47 µM [activator, full curve]"
19,NC(=O)c1c(NC(=O)CN2CCCC2)sc2c1CCCC2,inactive
20,COc1cc(OC)cc(C(=O)NC(=S)Nc2ccc3c4c(cccc24)CC3)c1,inactive
21,Cc1cc(OC(C)C(=O)Nc2cccnc2)ccc1Cl (configuration not stated),"inconclusive: 35.5 µM [inhibitor, single point]"
22,O=C(Cn1cccc1)N1CCc2ccccc21,inactive
23,CCOc1cccc(-c2nnc(SCC(=O)Nc3cccc(OC)c3)n2N)c1,"inconclusive: 29.1 µM [inhibitor, single point]"
24,COc1cccc(CNC(=O)C2CSC3(C)CCC(=O)N23)c1 (configuration not stated),inactive

# In a second layout: four of the compounds above.
row	SMILES	Potency
11	COc1ccc(C(=O)n2nc(-c3cccnc3)nc2NCc2ccccc2)cc1OC	inactive
12	Cc1cccc(NC(=O)Cc2nc(-c3c[nH]c(C(=O)N4CCCC4)c3)cs2)c1	inconclusive: 8.91 µM [inhibitor, partial curve, poor fit]
13	Cc1cccc(NC(=O)COc2ccc(Br)cc2/C=N/O)c1	inconclusive: 15.8 µM [inhibitor, single point]
14	Cc1ccc(CN2CCN(Cc3cccc(-n4cccn4)c3)CC2CCO)cc1 (configuration not stated)	inconclusive: 15.8 µM [inhibitor, single point]

# Later entries:

row,SMILES,Potency
1,O=[N+]([O-])c1ccc(C=NNc2ccccc2)cc1,"inconclusive: 35.5 µM [inhibitor, single point]"
2,CCc1ccc(C(=O)COC(=O)[C@@H](NC(N)=O)[C@@H](C)CC)cc1,inactive
3,CCOC(=O)c1csc(COc2ccc(OC)cc2)n1,"inconclusive: 7.08 µM [inhibitor, partial curve]"
4,O=S(=O)(c1ccc(Oc2ccccc2)cc1)N1CCOCC1,inactive
5,CCc1ccc(N2C(=O)CC(NNc3nc4ccccc4s3)C2=O)cc1 (configuration not stated),"inconclusive: 0.501 µM [inhibitor, full curve, poor fit]"
6,O=C(N/N=C/c1ccccc1Cl)c1ccc(F)cc1,inactive
7,Cc1cccc2cc(CN(Cc3cccnc3)C(=O)c3ccccc3F)c(Cl)nc12,"inconclusive: 29.1 µM [inhibitor, single point]"
8,Cc1ccc(C(=O)N/C(=C\c2ccccc2)C(=O)OCc2ccccc2)cc1,inactive
9,O=C(N/N=C\c1ccc(Sc2ccccn2)o1)c1cccc(Br)c1,"inconclusive: 0.146 µM [activator, full curve, poor fit]"
10,COc1ccc(CC(=O)OCC(=O)NCCc2ccccc2)cc1OC,"inconclusive: 1.26 µM [activator, partial curve, poor fit]"
11,O=c1[nH]c(=O)n(Cc2ccco2)c(O)c1C=NC1CCN(Cc2ccccc2)CC1,"inconclusive: 35.5 µM [inhibitor, single point]"
12,Cc1ccc(-n2c(SCC(=O)Nc3cccc(S(N)(=O)=O)c3)nc3ccccc32)cc1,"inconclusive: 9.2 µM [inhibitor, partial curve, poor fit]"
13,CCOCCN1CCN(C2c3ccccc3CSc3ccccc32)CC1 (configuration not stated),active: 12.6 µM
14,Cc1ccc2[nH]c(C(=O)N3CCOCC3)cc2c1,"inconclusive: 15.8 µM [activator, partial curve, poor fit]"
15,CN1CCc2c(sc(NC(=O)c3ccc(S(=O)(=O)N4CCCCCC4)cc3)c2C(N)=O)C1,"inconclusive: 35.5 µM [inhibitor, single point]"
16,O=C(Oc1ccccc1C(=S)N1CCOCC1)c1cccc([N+](=O)[O-])c1,"inconclusive: 8.91 µM [inhibitor, partial curve]"
17,CCN(CC)c1ccc(/C=N/NC(=O)c2ccccn2)cc1,"inconclusive: 3.16 µM [activator, single point]"
18,COc1ccc(CCC(C)N2CCC(Oc3ccc(C(=O)N4CCCC4)cc3)CC2)cc1 (configuration not stated),"inconclusive: 17.8 µM [inhibitor, single point]"
19,COc1ccc(-c2nc3ccncc3[nH]2)cc1OC,inactive
20,COc1ccc(OCC(=O)N2CCC(Cc3ccccc3)CC2)cc1,inactive
21,O=C(CN1C(=O)COc2ccccc21)c1ccc(Cl)cc1,"inconclusive: 6.51 µM [inhibitor, partial curve, poor fit]"
22,CSc1nc(-c2ccccc2)nn1S(=O)(=O)c1ccccc1,inactive
23,COc1ccc(/C=N/Nc2nc(C)nc(N)n2)cc1,"inconclusive: 0.355 µM [inhibitor, partial curve, poor fit]"

# Reference: PubChem BioAssay AID540276 (National Center for Advancing Translational Sciences (NCATS), 2011)
